# In PubChem BioAssay (NCATS):
# Amino acid sequences for entries named in this document (tags omitted). A change or cut given only in a name is not applied to a line headed by its entry.
# UniProt P10275: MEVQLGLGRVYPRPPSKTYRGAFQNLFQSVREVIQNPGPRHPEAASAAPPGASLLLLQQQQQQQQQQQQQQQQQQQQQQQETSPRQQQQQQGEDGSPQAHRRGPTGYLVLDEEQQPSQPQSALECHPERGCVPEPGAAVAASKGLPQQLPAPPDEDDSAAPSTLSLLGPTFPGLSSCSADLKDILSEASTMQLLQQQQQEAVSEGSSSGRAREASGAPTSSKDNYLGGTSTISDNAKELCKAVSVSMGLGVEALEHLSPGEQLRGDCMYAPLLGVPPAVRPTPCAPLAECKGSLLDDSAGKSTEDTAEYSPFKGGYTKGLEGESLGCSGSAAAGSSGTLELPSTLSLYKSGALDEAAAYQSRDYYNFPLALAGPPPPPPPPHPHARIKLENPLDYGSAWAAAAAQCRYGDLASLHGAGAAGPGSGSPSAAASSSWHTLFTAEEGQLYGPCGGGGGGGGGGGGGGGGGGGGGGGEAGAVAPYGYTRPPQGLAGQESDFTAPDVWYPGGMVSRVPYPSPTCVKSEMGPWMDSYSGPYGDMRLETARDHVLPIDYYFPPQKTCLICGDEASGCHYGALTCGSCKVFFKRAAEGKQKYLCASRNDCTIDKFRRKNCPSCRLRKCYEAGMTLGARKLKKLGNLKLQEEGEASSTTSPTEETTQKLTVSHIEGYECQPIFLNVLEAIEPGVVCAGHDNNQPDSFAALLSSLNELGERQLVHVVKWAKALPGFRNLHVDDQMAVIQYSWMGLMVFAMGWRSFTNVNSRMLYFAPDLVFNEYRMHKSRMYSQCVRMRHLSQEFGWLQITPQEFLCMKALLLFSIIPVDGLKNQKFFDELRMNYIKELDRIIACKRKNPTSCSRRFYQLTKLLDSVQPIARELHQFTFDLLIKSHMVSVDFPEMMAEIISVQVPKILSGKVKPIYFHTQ
# UniProt Q03181: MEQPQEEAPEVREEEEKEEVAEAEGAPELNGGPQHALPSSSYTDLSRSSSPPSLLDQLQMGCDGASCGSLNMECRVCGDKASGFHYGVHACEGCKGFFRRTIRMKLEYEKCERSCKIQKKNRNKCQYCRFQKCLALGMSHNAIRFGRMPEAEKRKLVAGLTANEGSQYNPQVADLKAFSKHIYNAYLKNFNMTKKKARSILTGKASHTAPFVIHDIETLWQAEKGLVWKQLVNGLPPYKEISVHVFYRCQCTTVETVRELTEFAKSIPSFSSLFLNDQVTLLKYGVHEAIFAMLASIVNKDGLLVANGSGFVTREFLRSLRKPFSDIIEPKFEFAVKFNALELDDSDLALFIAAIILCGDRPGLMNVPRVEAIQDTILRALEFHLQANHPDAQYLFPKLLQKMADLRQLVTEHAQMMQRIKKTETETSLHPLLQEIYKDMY
# UniProt P10828: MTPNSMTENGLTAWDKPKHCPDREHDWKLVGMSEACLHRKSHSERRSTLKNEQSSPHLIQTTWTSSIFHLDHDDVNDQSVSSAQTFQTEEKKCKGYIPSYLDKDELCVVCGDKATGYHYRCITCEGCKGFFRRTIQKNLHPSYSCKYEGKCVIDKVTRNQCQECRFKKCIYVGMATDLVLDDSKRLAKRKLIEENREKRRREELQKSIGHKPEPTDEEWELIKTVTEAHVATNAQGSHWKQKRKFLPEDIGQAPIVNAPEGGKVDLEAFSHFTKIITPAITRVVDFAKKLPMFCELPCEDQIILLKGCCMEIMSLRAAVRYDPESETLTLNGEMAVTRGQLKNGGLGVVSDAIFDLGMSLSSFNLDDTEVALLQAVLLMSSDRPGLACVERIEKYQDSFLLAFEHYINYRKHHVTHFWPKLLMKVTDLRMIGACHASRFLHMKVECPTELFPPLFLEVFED
# UniProt P19793: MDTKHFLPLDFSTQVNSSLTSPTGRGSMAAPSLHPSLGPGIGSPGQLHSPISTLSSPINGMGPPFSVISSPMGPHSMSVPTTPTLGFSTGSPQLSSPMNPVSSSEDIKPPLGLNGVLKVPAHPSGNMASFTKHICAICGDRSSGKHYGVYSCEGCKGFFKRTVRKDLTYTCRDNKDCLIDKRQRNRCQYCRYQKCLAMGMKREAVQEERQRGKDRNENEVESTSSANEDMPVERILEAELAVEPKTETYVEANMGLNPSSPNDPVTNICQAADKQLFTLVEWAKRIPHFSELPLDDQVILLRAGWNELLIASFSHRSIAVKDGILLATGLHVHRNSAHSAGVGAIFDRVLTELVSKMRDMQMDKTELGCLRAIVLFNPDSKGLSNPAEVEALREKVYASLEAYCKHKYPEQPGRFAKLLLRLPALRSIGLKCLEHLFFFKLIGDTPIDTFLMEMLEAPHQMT
# The inconclusive results got no clear call from the source; some entries with a clear call stand among them for comparison. For some assays here: Where the call is inconclusive, the potency comes from a doubtful curve fit. For some assays here: A note “side channel” means that the fit belongs to a control or component signal, not to the main read-out. Active and inactive are the calls of the source. Unless noted, the call rests on the fitted dose curve; in most records, active means well fitted curve in the direction sought with a large enough effect; inconclusive means small, poorly fitted or top-dose-only effect, or another doubt; inactive means no such curve, though single readings can be large; an effect the other way counts as inactive or inconclusive.
# What was measured:
# [1] = Cellular Toxicity (caspase-3) SK-N-SH (AID 661); conditions: SK-N-SH caspase-3 activation, qHTS, DMSO as zero, staurosporine as full; at 91.7 µM (top of the series);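 further: cells exposed to compound for 16 hours; 0% = DMSO basal and 100% = 10 µM staurosporine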
# How it was run: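 Caspase 3/7 activation was read by luminogenic substrate cleavage after 16 hour treatment of SK-N-SH cells. Signal was scaled between DMSO and 10 uM staurosporine, and concentration-response data were fitted with the Hill equation for AC50.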
# [2] = target: Androgen receptor (Homo sapiens) (UniProt P10275); assay: qHTS assay for small molecule agonists of androgen receptor signaling (AID 588515; active means well fitted curve in the direction sought with a large enough effect in the signal ratio, with a control signal flat; inconclusive means small, poorly fitted or top-dose-only effect, or effect the other way, or a change in a side signal; inactive means no such curve, though single readings can be large or run the other way; the % refers to the signal ratio; further: on the % scale 0 is the no-effect control and ±100 the full control effect); conditions: AR-UAS-bla HEK293, beta-lactamase ratio, agonist 16 h; activation: active compounds read high
# How it was run: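 Stimulation of an AR-responsive β-lactamase reporter in GripTite HEK293 cells was measured after 16 h compound exposure at 37 °C, via CCF4 fluorescence after 2 h RT. EC50 from Hill fits, normalized to R1881 at 30 nM.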
# [3] = target: Peroxisome proliferator-activated receptor delta (Homo sapiens) (UniProt Q03181); assay: qHTS assay for small molecule agonists of peroxisome proliferator-activated receptor delta signaling (AID 588534; calls by dose curve;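 further: 0% = DMSO basal wells and 100% = positive control agonist at 10 µM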); conditions: HEK293T PPARdelta-UAS-bla, beta-lactamase ratio, 18 h; activation: at 76.7 µM (top of the series) unless noted
# How it was run: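 Agonist-mode beta-lactamase reporter readout (CCF4 dye, 2 h at RT) after 18 h at 37 °C exposure to a titration; Hill-equation fitting gave EC50 and maximal response.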
# [4] = target: Peroxisome proliferator-activated receptor delta (Homo sapiens) (UniProt Q03181); assay: qHTS assay for small molecule antagonists of peroxisome proliferator-activated receptor delta signaling (AID 588535; active means well fitted inhibition curve with a large enough effect in the signal ratio, with a control signal flat, not every such curve was filed as active; inconclusive means small, poorly fitted or top-dose-only effect, or effect the other way, or a change in a side signal; inactive means no such curve, though single readings can be large or run the other way; the % refers to the signal ratio; further: potency means the concentration at half of the fitted maximal effect); conditions: HEK293T PPARd-UAS-bla, beta-lactamase FRET ratio, 18 h; activity change, negative = inhibition: at 76.7 µM (top of the series) unless noted
# How it was run: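 Fluorescence from CCF4-loaded GeneBLAzer PPAR-delta-UAS-bla HEK293T cells (2 hrs RT loading) quantified reporter inhibition after an 18 hr, 37 C compound exposure across a titration.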
# [5] = target: Peroxisome proliferator-activated receptor gamma (Homo sapiens) (UniProt P37231); assay: qHTS assay for small molecule antagonists of peroxisome proliferator-activated receptor gamma signaling (AID 588537; active means well fitted inhibition curve with a large enough effect in the signal ratio, with a control signal flat, not every such curve was filed as active; inconclusive means small, poorly fitted or top-dose-only effect, or effect the other way, or a change in a side signal; the % refers to the signal ratio; further: potency means the concentration at half of the fitted maximal effect;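 on activity, negative = inhibition: reporter cells co-stimulated with 50 nM rosiglitazone agonist during compound treatment; % of control where 0% means no effect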); conditions: HEK293 PPARg-UAS-bla, beta-lactamase ratio, antagonist mode; activity, negative = inhibition: at 76.8 µM (top of the series) unless noted
# How it was run: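 Fluorescence at 460 and 530 nm (405 nm excitation) reported beta-lactamase cleavage of CCF4 after 2 h room-temperature loading. HEK293 reporter cells in 1% charcoal/dextran-treated FBS had received compound and rosiglitazone for 16 h.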
# [6] = qHTS assay for small molecule agonists of the antioxidant response element (ARE) signaling pathway (AID 651741; active means well fitted activation curve with a large enough effect in the signal ratio; inconclusive means small, poorly fitted or top-dose-only effect, or effect the other way, or a change in a side signal; the % refers to the signal ratio; further: potency means the concentration at half of the fitted maximal effect; on activation: % of control where 0% means no effect); conditions: HepG2 ARE-bla reporter, beta-lactamase FRET ratio, 16 h; activation: at 96 µM (top of the series) unless noted
# How it was run: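 Stably integrated ARE-beta-lactamase reporter HepG2 cells; 16 h compound incubation, 37 C; LiveBLAzer FRET substrate 2 h at room temperature; fluorescence intensity.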
# [7] = qHTS assay to identify small molecules that stimulate interleukin-8 (IL-8) secretion (AID 651758; active means well fitted activation curve with a large enough effect in the signal ratio; inconclusive means small, poorly fitted or top-dose-only effect, or effect the other way, or a change in a side signal; the % refers to the signal ratio; further: 0% is about no effect); conditions: HTRF ratio (665/615); activation: at 92.2 µM (top of the series)
# How it was run: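 Compounds are added to THP-1 cells (2000 per well) and left 16 hrs at 37 C. A labeled anti-IL-8 antibody pair is then added, and IL-8 secretion is measured by time-resolved FRET after 1-3 hrs at room temperature.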
# [8] = Cellular Toxicity (caspase-3) H-4-II-E (AID 663); conditions: H-4-II-E rat hepatoma, scaled: DMSO 0%, 100 µM tamoxifen 100%; at 92.2 µM (top of the series);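 further: cells exposed to compound for 16 hr before readout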
# How it was run: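 H-4-II-E rat hepatoma, 1500 cells/well, 5 hr settle at 37 °C; compound 16 hr, 37 °C, complete medium; Caspase-Glo 3/7, 20 min RT; luminescence. DMSO = 0%, 100 uM tamoxifen = 100%; Hill-equation AC50.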
# [9] = Cell Viability - LYMP2-021 (AID 974); further: on the % scale 0 is the no-effect control and ±100 the full control effect; nearly all actives have a fitted effect of over 55% in size
# How it was run: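 AC50 values come from Hill-equation fits to CellTiter-Glo luminescence (ATP content), read after 24 hour compound exposure at 37 C of 2500 LYMP2-021 lymphoblastoid cells/well; tetraoctylammonium bromide as positive control.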
# [10] = Cell Viability - LYMP2-022 (AID 987);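 further: cells exposed to compound for 24 hr; 0% = DMSO alone and full effect = tetraoctylammonium bromide at 92 µM; nearly all actives have a fitted effect of over 55% in size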
# How it was run: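 Cytotoxicity read as decreased cellular ATP (CellTiter-Glo luminescence, 30 min room temperature) after 24 hours compound exposure of 2500 lymphoblastoid LYMP2-022 cells/well at 37 C. Concentration-response data fitted with standard Hill equation for AC50.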
# [11] = target: Androgen receptor (Homo sapiens) (UniProt P10275); assay: qHTS assay for small molecule antagonists of androgen receptor signaling (AID 588516; active means well fitted curve in the direction sought with a large enough effect in the signal ratio, with a control signal flat, not every such curve was filed as active; inconclusive means small, poorly fitted or top-dose-only effect, or effect the other way, or a change in a side signal; inactive means no such curve, though single readings can be large or run the other way; the % refers to the signal ratio; further: on the % scale 0 is the no-effect control and ±100 the full control effect); conditions: AR-UAS-bla HEK293, beta-lactamase ratio, antagonist mode, 16 h; activity change, negative = inhibition: at 76.8 µM (top of the series)
# How it was run: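 Antagonist mode: inhibition of R1881-stimulated (10 nM final) bla reporter in GeneBLAzer AR HEK 293 cells, 16 h at 37C, compounds titrated. IC50 and efficacy from Hill-equation fits of 405/460–530 nm FRET ratios.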
# [12] = target: Glucocorticoid receptor (Homo sapiens) (UniProt P04150); assay: qHTS assay for small molecule antagonists of glucocorticoid receptor signaling (AID 588533; active means well fitted inhibition curve with a large enough effect in the signal ratio, with a control signal flat, not every such curve was filed as active; inconclusive means small, poorly fitted or top-dose-only effect, or effect the other way, or a change in a side signal; the % refers to the signal ratio;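 further: cells stimulated with 2 nM dexamethasone as agonist; on the % scale 0 is the no-effect control and ±100 the full control effect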); conditions: HeLa MMTV-bla, GRE beta-lactamase ratio, antagonist mode, 18 h; activity change, negative = inhibition: at 76.8 µM (top of the series)
# [13] = target: Peroxisome proliferator-activated receptor gamma (Homo sapiens) (UniProt P37231); assay: qHTS assay for small molecule agonists of peroxisome proliferator-activated receptor gamma signaling (AID 588536; active means well fitted curve in the direction sought with a large enough effect in the signal ratio, with a control signal flat, not every such curve was filed as active; inconclusive means small, poorly fitted or top-dose-only effect, or effect the other way, or a change in a side signal; inactive means no such curve, though single readings can be large or run the other way; the % refers to the signal ratio;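 further: 0% = DMSO basal wells and 100% = rosiglitazone at 2 µM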); conditions: HEK293 PPARg-UAS-bla, beta-lactamase ratio, 16 h; activation: at 76.7 µM (top of the series), percent of rosiglitazone response, DMSO as zero
# How it was run: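 Beta-lactamase reporter read-out: CCF4 fluorescence (ex 405, em 460/530 nm) after 2 h at RT. HEK293 GeneBLAzer cells were treated for 16 h at 37 C. Hill fits gave EC50 and efficacy versus 2 uM rosiglitazone (100%) and DMSO (0%).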
# [14] = target: Vitamin D3 receptor (Homo sapiens) (UniProt P11473); assay: qHTS assay for small molecule antagonists of vitamin D receptor signaling (AID 588541; calls by dose curve;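 further: receptor activated by calcitriol during compound treatment; on the % scale 0 is the no-effect control and ±100 the full control effect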); conditions: HEK293T VDR-UAS-bla, beta-lactamase ratio, antagonist mode; activity change, negative = inhibition: at 76.7 µM (top of the series)
# [15] = target: Vitamin D3 receptor (Homo sapiens) (UniProt P11473); assay: qHTS assay for small molecule agonists of vitamin D receptor signaling (AID 588543; calls by dose curve; further: potency means the concentration at half of the fitted maximal effect;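 on activation: 0% = DMSO basal and 100% = reference agonist control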); conditions: HEK293T VDR-UAS-bla, beta-lactamase ratio, 16 h; activation: at 76.8 µM (top of the series)
# How it was run: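 Agonist-mode beta-lactamase reporter: HEK293T VDR-UAS-bla cells in charcoal-stripped 2% FBS, compound series 16 h 37 C, CCF4 2 h RT. EC50 from Hill fit, scaled against DMSO and 50 nM calcitriol control.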
# [16] = target: Thyroid hormone receptor beta (Homo sapiens) (UniProt P10828); assay: qHTS assay for small molecule antagonists of thyroid hormone receptor beta signaling (AID 588547; active means well fitted inhibition curve with a large enough effect in the signal ratio, with a control signal flat, not every such curve was filed as active; inconclusive means small, poorly fitted or top-dose-only effect, or effect the other way, or a change in a side signal; the % refers to the signal ratio; further: potency means the concentration at half of the fitted maximal effect); conditions: TR-UAS-bla HEK293, beta-lactamase ratio, antagonist mode, 18 h
# How it was run: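 TR-UAS-bla GripTite HEK293 cells in 2% charcoal/dextran FBS medium; compounds 0.59 nM to 92 uM with T3 at 0.4nM final, 18 h at 37 C. Beta-lactamase read by CCF4 fluorescence (460/530 nm); Hill fits gave IC50 and efficacy.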
# [17] = qHTS assay for small molecule agonists of the antioxidant response element (ARE) signaling pathway measured by Nrf2-dependant transcriptional activity (AID 720636; active means well fitted curve in the direction sought with a large enough effect in the repeat runs; inconclusive means weak or mixed curves; inactive means no such curve, though single readings can be large; an effect the other way counts as inactive or inconclusive;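 further: HepG2 cells with an ARE-driven luciferase reporter; % of control where 0% means no effect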)
# How it was run: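 Reporter gene assay, HepG2 ARE-luc: 16 hr compound, 37 C, 5% CO2; read-out luciferase luminescence.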
# [18] = target: Retinoic acid receptor RXR-alpha (Homo sapiens) (UniProt P19793); assay: qHTS assay for small molecule agonists of retinoid X receptor alpha signaling (AID 588544; calls by dose curve; further: potency means the concentration at half of the fitted maximal effect); conditions: HEK293T RXRa-UAS-bla, beta-lactamase reporter, 18 h; activation: at 76.7 µM (top of the series)
# [19] = Cellular Toxicity (caspase-3) Mesangial (AID 660); conditions: mesangial cells, normalized: DMSO 0%, 100 µM tamoxifen 100%; at 91.7 µM (top of the series);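 further: combined caspase 3 and 7 activity read by Caspase-Glo luminescence; cells exposed to compound for 16 h before the caspase read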
# How it was run: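 Caspase 3/7 activation measured by Caspase-Glo 3/7 luminescence (20 min, room temperature) following 16 h exposure of mesangial cells (1000/well); AC50 from Hill-equation fit, normalized to DMSO and 100 uM tamoxifen.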
# [20] = Cell Viability - LYMP1-003 - Assay at 40 hr (AID 964); conditions: LYMP1-003 lymphoblastoid viability; at 92.2 µM (top of the series); further: on the % scale 0 is the no-effect control and ±100 the full control effect; nearly all actives have a fitted effect of over 60% in size
# How it was run: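 Viability is taken as cellular ATP, read by CellTiter-Glo luminescence after 40 h of compound exposure at 37 C. Cells: human lymphoblastoid line LYMP1-003 at 2500/well; AC50 values derived by Hill-equation fitting of concentration-response data.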
# [21] = Cell Viability - LYMP2-009 (AID 968); conditions: LYMP2-009 lymphoblastoid cell viability; activity change, negative = viability loss: at 92.2 µM (top of the series);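 further: cells exposed to compound for 24 h at 37 °C; 0% = DMSO alone and the full-kill end = tetraoctylammonium bromide at 92 µM; nearly all actives have a fitted effect of over 55% in size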
# [22] = target: Thyroid hormone receptor beta (Homo sapiens) (UniProt P10828); assay: qHTS assay for small molecule agonists of thyroid hormone receptor beta signaling (AID 588545; calls by dose curve); conditions: TR-UAS-bla GripTite HEK 293, beta-lactamase ratio, agonist mode, 18 h; activation: at 76.7 µM, percent of T3 response, DMSO as zero
# How it was run: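 Agonist activity was read as beta-lactamase CCF4 fluorescence (405 ex, 460/530 em), scaled between DMSO (0%) and 10 nM T3 (100%), then Hill-fitted for EC50 and efficacy. HEK 293 TR-UAS-bla cells in 2% charcoal/dextran FBS medium were exposed 18 h at 37 C.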
smiles,measurement,setting,value
CCN(Cc1ccccc1)c1ccccc1,caspase-3 activation,[1],inactive: 0.197%
same,activation,[2],inactive: 11.1%
same,Potency,[3],inactive
same,Potency,[4],"inconclusive: 50.1 µM [fluorescent, side channel]"
same,Potency,[5],inactive
same,activation,[6],inconclusive: 9.18%
same,Potency,[7],inactive
Cc1c(C(=O)O)cccc1[N+](=O)[O-],caspase-3 activation,[8],inactive: -0.261%
same,Potency,[9],inactive
same,Potency,[10],inactive
same,"activity change, negative = inhibition",[11],inconclusive: -11.5%
same,Potency,[12],inactive
same,Potency,[4],inactive
same,Potency,[13],inactive
same,Potency,[6],"inconclusive: 66.8 µM [activator, partial curve, poor fit]"
same,activation,[7],inconclusive: 24.2%
N[C@@H]1[C@@H](O)[C@H](O)[C@@H](CO)O[C@H]1O,activation,[2],inactive: 9.13%
same,Potency,[14],inactive
same,Potency,[15],"inconclusive: 0.0355 µM [side channel, falling, full curve]"
same,Potency,[16],"inconclusive: 3.55 µM [cytotoxic, side channel, full curve, poor fit]"
same,activation,[6],inconclusive: 10.8%
same,Potency,[17],inactive
CC(C)Cc1c(C(=O)O)c(C(F)F)nc(C(F)(F)F)c1C1=NCCS1,Potency,[11],inactive
same,Potency,[5],inactive
same,Potency,[15],inactive
CCCCCCCCCCCCCCCCCCN,activation,[2],inactive: -9.22%
same,Potency,[12],inactive
same,activation,[13],inconclusive: 18.5%
same,"activity, negative = inhibition",[5],inconclusive: 0.796%
same,Potency,[18],active: 15.8 µM
same,activation,[6],inconclusive: 9.22%
O=C1NC(=O)c2cc([N+](=O)[O-])ccc21,caspase-3 activation,[19],inactive: -0.781%
same,"activity change, negative = cytotoxic",[20],inactive: 7.77%
same,Potency,[21],inactive
same,"activity change, negative = inhibition",[11],inconclusive: -37%
same,"activity, negative = inhibition",[5],inconclusive: 4.08%
same,activation,[22],inconclusive: -27.9%
same,Potency,[6],inactive
same,activation,[7],inconclusive: -18.5%
same,Potency,[17],inactive
Nc1c(N=Nc2ccc(S(=O)(=O)CCOS(=O)(=O)O)cc2)c(S(=O)(=O)O)cc2cc(S(=O)(=O)O)c(N=Nc3ccc(S(=O)(=O)CCOS(=O)(=O)O)cc3)c(O)c12,"activity change, negative = inhibition",[11],inconclusive: -8.98%
same,"activity change, negative = inhibition",[12],inconclusive: 6.93%
same,activation,[13],inconclusive: 17.2%
same,Potency,[5],"inconclusive: 44.7 µM [inhibitor, partial curve, poor fit]"
